Some of the results follow.
Molecular target: T1, OsSMF1 (Oryza sativa, UniProt Q6ZLB0 1-436)
T1 sequence: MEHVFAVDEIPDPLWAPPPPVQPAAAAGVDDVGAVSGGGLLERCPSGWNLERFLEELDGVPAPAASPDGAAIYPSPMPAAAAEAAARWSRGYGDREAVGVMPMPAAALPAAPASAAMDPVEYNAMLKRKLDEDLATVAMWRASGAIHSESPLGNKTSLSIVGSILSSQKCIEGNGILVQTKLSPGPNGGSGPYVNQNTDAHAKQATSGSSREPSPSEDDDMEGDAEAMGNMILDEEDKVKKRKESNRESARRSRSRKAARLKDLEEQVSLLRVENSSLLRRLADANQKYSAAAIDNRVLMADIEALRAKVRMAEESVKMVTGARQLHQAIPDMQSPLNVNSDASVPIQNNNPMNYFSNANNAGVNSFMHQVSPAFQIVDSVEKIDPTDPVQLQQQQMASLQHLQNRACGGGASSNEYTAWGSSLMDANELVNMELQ
Assay: protein-binding microarray (RPBM); PBS, 2% BSA, 51.3 ng/ul salmon testes DNA, 50 uM zinc acetate, 200 nM TF, 25 C, 1 h; high values mean tight binding
Conditions: protein: recombinant; tags: N-terminal polyhistidine and DsRed monomer fusion (pET32a); chain copies: 2; label: CyDye5-dUTP incorporated in the synthesized complementary strand; 3' TTTTT single-stranded linker to array surface; dsDNA, one strand shown
Procedure, shortened: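 Transcription factors, each fused N-terminally to a polyhistidine tag and DsRed, were expressed in E. coli BL21-CodonPlus and purified on Ni–NTA. A custom Agilent array was made double-stranded by primer extension with Cy5-dUTP and blocked with 2% BSA. It was incubated with 200 nM protein in PBS, 2% BSA, salmon testes DNA and 50 µM zinc acetate at 25 °C for 1 h, then washed. The binding signal is per-feature fluorescence intensity (arbitrary units) read on an Axon 4000B scanner.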

Row | Sequence | binding signal
1 | CTCAGTCGTGCGTGCCTCGTGTAACGCAGGTGTTCGTTCCCGGAGTCACCTAGTGCAG | 3430 fluorescence intensity (a.u.)
2 | CGGTAGGATACGTGGACCCGGTCTTGGTGCTCCCCGTGTACGGAGTCACCTAGTGCAG | 5860 fluorescence intensity (a.u.)
3 | CAGCAGCAGCAGCAGCAATGTCCGGCACCGCCAACGCGACCGGAGTCACCTAGTGCAG | 3140 fluorescence intensity (a.u.)
4 | AAAACGCTAGTGTGATCCACGTATGGCCCATAAATATTGGCGGAGTCACCTAGTGCAG | 6700 fluorescence intensity (a.u.)
5 | TAGACCAAAATGCCCCTGACGCGGGCCCCACCTGTCATACCGGAGTCACCTAGTGCAG | 4730 fluorescence intensity (a.u.)
6 | CTGACAGCTTTTAGTTCACAAATATCAGTAAGATTTCCCTCGGAGTCACCTAGTGCAG | 43200 fluorescence intensity (a.u.)
7 | ATCCATGCGTGAGGATCGGAGTACGTGTTTATCTGATGGACGGAGTCACCTAGTGCAG | 4100 fluorescence intensity (a.u.)
8 | CATTTCCCCACGCACGCTGGCGTAGTTCATCCCAACGTCACGGAGTCACCTAGTGCAG | 4160 fluorescence intensity (a.u.)
9 | GTCAGACGACGCCTGGAACGAGCCCAATCCAAGGCCCACACGGAGTCACCTAGTGCAG | 27700 fluorescence intensity (a.u.)
10 | GCATAGCCTACTTATACTGAACCTTCTAACGTGTCGGATTCGGAGTCACCTAGTGCAG | 3700 fluorescence intensity (a.u.)
11 | GGCGTACAGGTGGCGCACAAGGTTGTGGCCATTGCCGGAGCGGAGTCACCTAGTGCAG | 3680 fluorescence intensity (a.u.)
12 | ATGCTGATGAATCAAGACGCCTCTACGGCCGATCTCGGGCCGGAGTCACCTAGTGCAG | 15100 fluorescence intensity (a.u.)
13 | GGTGGCCCCGAGGAGGTGCGCGTGGCGGCCGTGGCGCCGGCGGAGTCACCTAGTGCAG | 3840 fluorescence intensity (a.u.)
14 | GACGCCGTCGAGGCTCGTGGCGGTCGGCGCCACGTCCTCGCGGAGTCACCTAGTGCAG | 12300 fluorescence intensity (a.u.)
15 | CGGGGCAGCCGGCCATGACCATCCGCAGGTCCTGCAGGCTCGGAGTCACCTAGTGCAG | 20000 fluorescence intensity (a.u.)
16 | ATGGACCGCCACCTCGCGCCGAGCTTCCAGATCCCGCCGGCGGAGTCACCTAGTGCAG | 3380 fluorescence intensity (a.u.)
17 | ATCTGTTTAACATCGAATCGATCTCATCCAACGTCTTCGGCGGAGTCACCTAGTGCAG | 3910 fluorescence intensity (a.u.)
18 | GGCCGGCCCGTCGCTCCACGCCTCGGATCACCACTGTCTTCGGAGTCACCTAGTGCAG | 3320 fluorescence intensity (a.u.)
19 | GGTGACAGGCAGTCCACATCCTTATCGCTCTTTGCTAGTTCGGAGTCACCTAGTGCAG | 3890 fluorescence intensity (a.u.)
20 | TTTCTTTATAATACGATGTTGACTGTATCAACTGTTTCTTCGGAGTCACCTAGTGCAG | 5040 fluorescence intensity (a.u.)
21 | AATCAATGCGATGGTACGTGCTGTAACTGTAATCGATCACCGGAGTCACCTAGTGCAG | 4650 fluorescence intensity (a.u.)

Row | Sequence | binding signal
22 | TGAAATGTTTCCCGTCAAGGCGTCAAATACGCACAGTTTTCGGAGTCACCTAGTGCAG | 6140 fluorescence intensity (a.u.)
23 | ACCCAGTGTCATCGCACTGTACTAAAAGTTAGCCACGTTACGGAGTCACCTAGTGCAG | 3930 fluorescence intensity (a.u.)
24 | GCTAGGAGGAATGTGGCATCACCATCAGCTTCTGCATTGGCGGAGTCACCTAGTGCAG | 3440 fluorescence intensity (a.u.)
25 | CTTGCTGGTGGAGAATGACGCTGCGTTCATGCGGCCTCCGCGGAGTCACCTAGTGCAG | 3670 fluorescence intensity (a.u.)
26 | GATCGGTTAGTCTCGTTAATTTCGTCATCAGCATTATACTCGGAGTCACCTAGTGCAG | 5540 fluorescence intensity (a.u.)
27 | TCACTCAAATTTACAGTGCATTTTCTTGTAAGTTACAGTGCGGAGTCACCTAGTGCAG | 4800 fluorescence intensity (a.u.)
28 | TGGGGATGGATATGGCGCTCCGGGGATGGAGGTGGTGGTGCGGAGTCACCTAGTGCAG | 3490 fluorescence intensity (a.u.)
29 | TTAATCATATTTTAATTACCTTTATATTCCACGTGTGACTCGGAGTCACCTAGTGCAG | 7990 fluorescence intensity (a.u.)
30 | TATACTAATGACTCATTTCATATTAGGTATCCTGTCCTTTCGGAGTCACCTAGTGCAG | 7610 fluorescence intensity (a.u.)
31 | TGCGCTTGCCTCGGAGTCGGTGGCATCTTACCTGCCGCCACGGAGTCACCTAGTGCAG | 3680 fluorescence intensity (a.u.)
32 | CTGGACAGGAAGCAAAGCTCCTGACACGCCCAGCCGTCCCCGGAGTCACCTAGTGCAG | 3220 fluorescence intensity (a.u.)
33 | CGAGTGGACGGAGGAGGAGAGGACGTGGCTCCACGGAGACCGGAGTCACCTAGTGCAG | 7830 fluorescence intensity (a.u.)
34 | TTTTGAGACGAACACGTGTCGGGCGCCGACGTCACGTCGCCGGAGTCACCTAGTGCAG | 16300 fluorescence intensity (a.u.)
35 | AATCGAACCCGGGTCTGTACCGTGGCAGGGTACTATTCTACGGAGTCACCTAGTGCAG | 3290 fluorescence intensity (a.u.)
36 | CCAGCTTGGGTATCAGGGTACACGTGCTACACTTTTAGAGCGGAGTCACCTAGTGCAG | 3140 fluorescence intensity (a.u.)
37 | TCCTCGTCTGCCTTAATGGTGACTCAACTCTAAAAGTTCTCGGAGTCACCTAGTGCAG | 9760 fluorescence intensity (a.u.)
38 | CAGCTCAATAAAACGCAGACGTGGAGGGTGTCGCGGCGCCCGGAGTCACCTAGTGCAG | 6610 fluorescence intensity (a.u.)
39 | TGTCTCCCTCATTCCTTGCAGAGTTGCAGTTGATGTGGCTCGGAGTCACCTAGTGCAG | 3230 fluorescence intensity (a.u.)
40 | CTTCCGTTTGACGCGGTAGCTGACCAGCCTATGATATACTCGGAGTCACCTAGTGCAG | 3560 fluorescence intensity (a.u.)
41 | CATTCTATGAGCTAGACCTGGGGCTCAATCATGTCTCGCGCGGAGTCACCTAGTGCAG | 35100 fluorescence intensity (a.u.)
42 | ACTGTTTAGCTAGCGCTTTAATCTGTCTGCGTAATTTGTTCGGAGTCACCTAGTGCAG | 3150 fluorescence intensity (a.u.)

Two records drawn at random from the list so far, as already listed:
Row | Sequence | binding signal
25 | CTTGCTGGTGGAGAATGACGCTGCGTTCATGCGGCCTCCGCGGAGTCACCTAGTGCAG | 3670 fluorescence intensity (a.u.)
20 | TTTCTTTATAATACGATGTTGACTGTATCAACTGTTTCTTCGGAGTCACCTAGTGCAG | 5040 fluorescence intensity (a.u.)

Reference: publication PMC7819943, “Rice protein-binding microarrays: a tool to detect cis-acting elements near promoter regions in rice”
